Measured values from patent publication US11384071B2, “Inhibitors of mechanotransduction to treat pain and modulate touch perception” (Max-Delbrück-Centrum für Molekulare Medizin in der …, priority 2016, dated 2022).

Tested on: Stoml3 mRNA
Assay: qPCR of Stoml3 transcript levels after inhibitor treatment
Assay type: cell-based, mouse
Conditions: 3 hours, 20 μM

CCOC(=O)c1c(-c2ccccc2)oc2ccc(Oc3c([N+](=O)[O-])ncn3C)cc12 [OB-1, Ethyl 5-((1-methyl-4-nitro-1H-imidazol-5-yl)oxy)-2-phenylbenzofuran-3-carboxylate]
levels of Stoml3 mRNA (N2A cells): did not reflect changes | level of Stoml3 transcripts (sensory neurons): did not lead to any changes
